Chains of the proteins cited; added tags and fusions are not shown. Lines headed by an entry give the natural chain unless they say otherwise; changes in a name come on top.
UniProt P23321: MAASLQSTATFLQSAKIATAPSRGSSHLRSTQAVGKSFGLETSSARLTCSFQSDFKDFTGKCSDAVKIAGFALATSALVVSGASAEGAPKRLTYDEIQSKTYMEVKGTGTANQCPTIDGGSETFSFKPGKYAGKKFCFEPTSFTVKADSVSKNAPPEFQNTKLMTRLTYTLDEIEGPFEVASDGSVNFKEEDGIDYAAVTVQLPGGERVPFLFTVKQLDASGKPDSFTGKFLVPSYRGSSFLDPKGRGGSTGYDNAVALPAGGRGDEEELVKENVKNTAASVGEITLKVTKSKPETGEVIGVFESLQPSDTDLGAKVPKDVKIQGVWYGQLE

According to PMC5745004:

Target: PsbO1GFP (PsbO1^1-332GFP, full-length PsbO1 fused to GFP) expressed in Arabidopsis (Arabidopsis) (UniProt P23321)
Assay: co-IP; GFP-trap resin with lysate of seven-day-old Arabidopsis seedlings, 4°C 1 h, 25 mM Tris-HCl pH 7.5, 150 mM NaCl, 0.5% NP40; washes with 0.1% NP40; immunoblotting

B1: HSP90C, endogenous in Arabidopsis seedlings (protein, UniProt Q9SIF2 61-780)
chain: CDAAVAEKETTEEGSGEKFEYQAEVSRLLDLIVHSLYSHKEVFLRELVSNASDALDKLRFLSVTEPSLLGDGGDLEIRIKPDPDNGTITITDTGIGMTKEELIDCLGTIAQSGTSKFLKALKENKDLGADNGLIGQFGVGFYSAFLVAEKVVVSTKSPKSDKQYVWESVADSSSYLIREETDPDNILRRGTQITLYLREDDKYEFAESTRIKNLVKNYSQFVGFPIYTWQEKSRTIEVEEDEPVKEGEEGEPKKKKTTKTEKYWDWELANETKPLWMRNSKEVEKGEYNEFYKKAFNEFLDPLAHTHFTTEGEVEFRSILYIPGMGPLNNEDVTNPKTKNIRLYVKRVFISDDFDGELFPRYLSFVKGVVDSDDLPLNVSREILQESRIVRIMRKRLIRKTFDMIQEISESENKEDYKKFWENFGRFLKLGCIEDTGNHKRITPLLRFFSSKNEEELTSLDDYIENMGENQKAIYYLATDSLKSAKSAPFLEKLIQKDIEVLYLVEPIDEVAIQNLQTYKEKKFVDISKEDLELGDEDEVKDREAKQEFNLLCDWIKQQLGDKVAKVQVSNRLSSSPCVLVSGKFGWSANMERLMKAQALGDTSSLEFMRGRRILEINPDHPIIKDLNAACKNAPESTEATRVVDLLYDTAIISSGFTPDSPAELGNKIYEMMAMAVGGRWGRVEEEEESSTVNEGDDKSGETEVVEPSEVRAESDPWQD
  binding: binds

Results are given in words; binding and its absence hold for the method and conditions named. In cells and extracts the contact can be indirect. Binding calls can cover weak binding; strength is not graded here.
